# Assay results reported in the supplement of paper PMC10032668.
# By UniProt entry, the sequences of proteins in these tests, tags left out.
# DLX6, P56179, UniProt P56179, whole entry: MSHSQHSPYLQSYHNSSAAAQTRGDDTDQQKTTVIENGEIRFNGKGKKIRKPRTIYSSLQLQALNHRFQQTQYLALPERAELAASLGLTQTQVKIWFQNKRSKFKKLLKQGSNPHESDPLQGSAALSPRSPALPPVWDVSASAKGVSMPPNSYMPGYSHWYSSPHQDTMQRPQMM
# CKS1B, P61024, UniProt P61024, whole entry: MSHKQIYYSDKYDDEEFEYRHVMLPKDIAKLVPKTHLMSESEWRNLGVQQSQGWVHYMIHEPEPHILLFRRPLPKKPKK
# AURKB, Q96GD4, UniProt Q96GD4, whole entry: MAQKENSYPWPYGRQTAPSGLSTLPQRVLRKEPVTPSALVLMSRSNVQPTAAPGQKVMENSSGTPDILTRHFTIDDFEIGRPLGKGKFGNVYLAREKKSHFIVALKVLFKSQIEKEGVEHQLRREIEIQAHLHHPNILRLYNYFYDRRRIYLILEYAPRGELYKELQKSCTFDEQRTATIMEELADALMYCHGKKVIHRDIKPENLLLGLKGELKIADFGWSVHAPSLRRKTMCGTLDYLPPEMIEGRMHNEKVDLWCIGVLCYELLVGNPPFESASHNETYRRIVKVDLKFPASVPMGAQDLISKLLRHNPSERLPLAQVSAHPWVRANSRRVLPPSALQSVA
# EXOSC3, Q9NQT5, UniProt Q9NQT5, whole entry: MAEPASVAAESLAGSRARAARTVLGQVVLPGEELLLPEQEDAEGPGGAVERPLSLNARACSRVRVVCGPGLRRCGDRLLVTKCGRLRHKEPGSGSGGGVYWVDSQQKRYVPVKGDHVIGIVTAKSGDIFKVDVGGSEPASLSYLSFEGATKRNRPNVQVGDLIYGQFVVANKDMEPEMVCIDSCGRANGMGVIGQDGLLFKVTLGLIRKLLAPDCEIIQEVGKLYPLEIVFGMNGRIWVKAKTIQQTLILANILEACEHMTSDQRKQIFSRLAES
# NELFA, Q9H3P2, UniProt Q9H3P2, whole entry: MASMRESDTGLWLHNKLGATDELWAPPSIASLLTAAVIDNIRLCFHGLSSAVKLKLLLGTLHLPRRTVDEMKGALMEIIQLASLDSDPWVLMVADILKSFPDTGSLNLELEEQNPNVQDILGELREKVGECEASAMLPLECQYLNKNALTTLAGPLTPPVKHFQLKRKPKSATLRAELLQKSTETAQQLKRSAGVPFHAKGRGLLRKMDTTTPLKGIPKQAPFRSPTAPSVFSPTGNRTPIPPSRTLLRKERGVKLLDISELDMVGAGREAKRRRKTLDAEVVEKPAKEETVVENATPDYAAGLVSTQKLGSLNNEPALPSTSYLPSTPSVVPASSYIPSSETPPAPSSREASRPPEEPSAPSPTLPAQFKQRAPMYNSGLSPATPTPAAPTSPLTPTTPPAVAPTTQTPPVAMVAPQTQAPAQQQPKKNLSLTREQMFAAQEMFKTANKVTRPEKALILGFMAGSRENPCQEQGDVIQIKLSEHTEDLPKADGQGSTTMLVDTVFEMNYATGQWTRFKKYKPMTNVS
# PDHA1, P08559, UniProt P08559, whole entry: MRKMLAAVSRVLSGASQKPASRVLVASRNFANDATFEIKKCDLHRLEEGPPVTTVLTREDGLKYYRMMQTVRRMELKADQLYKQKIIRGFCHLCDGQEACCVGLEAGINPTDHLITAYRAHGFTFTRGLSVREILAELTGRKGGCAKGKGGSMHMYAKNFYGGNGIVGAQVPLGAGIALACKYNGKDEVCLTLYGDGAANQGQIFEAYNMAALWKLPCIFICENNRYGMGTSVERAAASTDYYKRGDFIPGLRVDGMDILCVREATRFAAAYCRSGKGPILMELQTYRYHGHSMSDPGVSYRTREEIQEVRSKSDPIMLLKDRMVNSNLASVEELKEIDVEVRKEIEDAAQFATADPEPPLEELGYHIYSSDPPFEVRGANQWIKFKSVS
# CDC20, Q12834, UniProt Q12834, whole entry: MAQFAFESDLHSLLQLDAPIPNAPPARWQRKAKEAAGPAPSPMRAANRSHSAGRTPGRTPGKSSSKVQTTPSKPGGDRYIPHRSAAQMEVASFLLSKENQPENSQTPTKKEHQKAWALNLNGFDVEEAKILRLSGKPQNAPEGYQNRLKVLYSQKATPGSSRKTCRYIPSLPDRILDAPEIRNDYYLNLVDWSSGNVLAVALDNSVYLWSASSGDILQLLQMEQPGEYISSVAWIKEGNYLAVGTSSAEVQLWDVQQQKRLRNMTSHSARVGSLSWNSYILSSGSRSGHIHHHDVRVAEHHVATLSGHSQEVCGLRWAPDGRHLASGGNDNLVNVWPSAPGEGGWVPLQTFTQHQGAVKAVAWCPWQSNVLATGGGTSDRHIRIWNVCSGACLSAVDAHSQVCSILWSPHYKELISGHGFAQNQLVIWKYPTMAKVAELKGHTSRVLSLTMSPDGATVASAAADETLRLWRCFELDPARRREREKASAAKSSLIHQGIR
# GRWD1, Q9BQ67, UniProt Q9BQ67, whole entry: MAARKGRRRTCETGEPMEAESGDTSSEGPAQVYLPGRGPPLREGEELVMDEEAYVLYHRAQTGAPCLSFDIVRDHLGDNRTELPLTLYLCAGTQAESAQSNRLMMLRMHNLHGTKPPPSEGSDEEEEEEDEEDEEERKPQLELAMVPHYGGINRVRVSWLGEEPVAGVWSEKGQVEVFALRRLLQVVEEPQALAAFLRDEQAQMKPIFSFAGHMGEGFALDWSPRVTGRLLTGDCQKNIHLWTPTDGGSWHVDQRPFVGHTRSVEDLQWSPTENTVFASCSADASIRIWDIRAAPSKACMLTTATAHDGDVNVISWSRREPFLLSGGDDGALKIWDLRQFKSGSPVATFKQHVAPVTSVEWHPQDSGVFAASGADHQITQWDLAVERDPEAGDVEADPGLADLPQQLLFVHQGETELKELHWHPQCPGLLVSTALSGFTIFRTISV
# Some of the results follow. The list holds hits alone, and they repeat only in part.
# What was measured:
# Experiment in all cases: PRISMA enrichment of interactor (LFQ) in peptide spot vs all other peptide spots (log2 fold change); higher = stronger / more specific binding of the interactor to the peptide
# CCDC178, Q5BJE1 = biological target: CCDC178, Q5BJE1
# Description: (§1)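 PRISMA: 221 full-length sORF-encoded peptides (3-15 aa), plus SOS1/GLUT1 control peptides, were spot-synthesized on cellulose membranes in triplicate. Membranes were incubated with HEK293T lysate, and bound proteins were identified by LC-MS/MS with LFQ. Enrichment is the log2 fold change versus all other peptide spots; only significant interactors are listed (cutoff c=6, x0=2.8).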
# CHD8, Q9HCK8 = biological target: CHD8, Q9HCK8
# Description: as §1
# COMT, P21964 = biological target: COMT, P21964
# Description: as §1
# DLX6, P56179 = biological target: DLX6, P56179
# Description: as §1
# LRRTM2, O43300 = biological target: LRRTM2, O43300
# Description: as §1
# METTL26, Q96S19 = biological target: METTL26, Q96S19
# Description: as §1
# MRPS16, Q9Y3D3 = biological target: MRPS16, Q9Y3D3
# Description: as §1
# PMPCA, Q10713 = biological target: PMPCA, Q10713
# Description: as §1
# BOLA3, Q53S33 = biological target: BOLA3, Q53S33
# Description: as §1
# CKS1B, P61024 = biological target: CKS1B, P61024
# Description: as §1
# FBXO21, O94952 = biological target: FBXO21, O94952
# Description: as §1
# NT5DC2, Q9H857 = biological target: NT5DC2, Q9H857
# Description: as §1
# AURKB, Q96GD4 = biological target: AURKB, Q96GD4
# Description: as §1
# CHCHD1, Q96BP2 = biological target: CHCHD1, Q96BP2
# Description: as §1
# EXOSC3, Q9NQT5 = biological target: EXOSC3, Q9NQT5
# Description: as §1
# FAM53C, Q9NYF3 = biological target: FAM53C, Q9NYF3
# Description: as §1
# GPS1, Q13098 = biological target: GPS1, Q13098
# Description: as §1
# HERC5, Q9UII4 = biological target: HERC5, Q9UII4
# Description: as §1
# MCU, Q8NE86 = biological target: MCU, Q8NE86
# Description: as §1
# NELFA, Q9H3P2 = biological target: NELFA, Q9H3P2
# Description: as §1
# PDHA1, P08559 = biological target: PDHA1, P08559
# Description: as §1
# POLD1, P28340 = biological target: POLD1, P28340
# Description: as §1
# UBR4, Q5T4S7 = biological target: UBR4, Q5T4S7
# Description: as §1
# ZBTB10, Q96DT7 = biological target: ZBTB10, Q96DT7
# Description: as §1
# CBX8, Q9HC52 = biological target: CBX8, Q9HC52
# Description: as §1
# MUC5AC, P98088 = biological target: MUC5AC, P98088
# Description: as §1
# WDR33, Q9C0J8 = biological target: WDR33, Q9C0J8
# Description: as §1
# AUH, Q13825 = biological target: AUH, Q13825
# Description: as §1
# ILVBL, A1L0T0 = biological target: ILVBL, A1L0T0
# Description: as §1
# RAB3GAP1, Q15042 = biological target: RAB3GAP1, Q15042
# Description: as §1
# SSU72, Q9NP77 = biological target: SSU72, Q9NP77
# Description: as §1
# AURKA, O14965 = biological target: AURKA, O14965
# Description: as §1
# CDC20, Q12834 = biological target: CDC20, Q12834
# Description: as §1
# GRWD1, Q9BQ67 = biological target: GRWD1, Q9BQ67
# Description: as §1
# LSM12, Q3MHD2 = biological target: LSM12, Q3MHD2
# Description: as §1
# LYRM2, Q9NU23 = biological target: LYRM2, Q9NU23
# Description: as §1
# MRPL49, Q13405 = biological target: MRPL49, Q13405
# Description: as §1
# MRPL55, Q7Z7F7 = biological target: MRPL55, Q7Z7F7
# Description: as §1
binder,measurement,setting,value
MAVALSAPAIRLSD [DUSP26],PRISMA enrichment of interactor (log2),"CCDC178, Q5BJE1",6.28
same,PRISMA enrichment of interactor (log2),"CHD8, Q9HCK8",7.08
same,PRISMA enrichment of interactor (log2),"COMT, P21964",4.79
same,PRISMA enrichment of interactor (log2),"DLX6, P56179",7.89
same,PRISMA enrichment of interactor (log2),"LRRTM2, O43300",7.35
same,PRISMA enrichment of interactor (log2),"METTL26, Q96S19",10.6
same,PRISMA enrichment of interactor (log2),"MRPS16, Q9Y3D3",6.63
same,PRISMA enrichment of interactor (log2),"PMPCA, Q10713",7.07
MEMVCMLLWKISLS [PCDH9],PRISMA enrichment of interactor (log2),"BOLA3, Q53S33",5.42
same,PRISMA enrichment of interactor (log2),"CKS1B, P61024",5.18
same,PRISMA enrichment of interactor (log2),"FBXO21, O94952",5.21
same,PRISMA enrichment of interactor (log2),"NT5DC2, Q9H857",6.58
MSKNSVTVLPWSLQ [P2RY14],PRISMA enrichment of interactor (log2),"AURKB, Q96GD4",5.4
same,PRISMA enrichment of interactor (log2),"CHCHD1, Q96BP2",8.48
same,PRISMA enrichment of interactor (log2),"EXOSC3, Q9NQT5",5.75
same,PRISMA enrichment of interactor (log2),"FAM53C, Q9NYF3",5.53
same,PRISMA enrichment of interactor (log2),"GPS1, Q13098",4.76
same,PRISMA enrichment of interactor (log2),"HERC5, Q9UII4",5.57
same,PRISMA enrichment of interactor (log2),"MCU, Q8NE86",6.97
same,PRISMA enrichment of interactor (log2),"NELFA, Q9H3P2",3.95
same,PRISMA enrichment of interactor (log2),"PDHA1, P08559",4.91
same,PRISMA enrichment of interactor (log2),"POLD1, P28340",5.49
same,PRISMA enrichment of interactor (log2),"UBR4, Q5T4S7",6.82
same,PRISMA enrichment of interactor (log2),"ZBTB10, Q96DT7",5
MRDERSA [DCAF11],PRISMA enrichment of interactor (log2),"CBX8, Q9HC52",6.85
same,PRISMA enrichment of interactor (log2),"MUC5AC, P98088",4.23
same,PRISMA enrichment of interactor (log2),"WDR33, Q9C0J8",5.13
MLRSCSLNQPKF [PNISR],PRISMA enrichment of interactor (log2),"AUH, Q13825",4.71
same,PRISMA enrichment of interactor (log2),"ILVBL, A1L0T0",6.33
same,PRISMA enrichment of interactor (log2),"RAB3GAP1, Q15042",5.49
same,PRISMA enrichment of interactor (log2),"SSU72, Q9NP77",3.81
MRTVMCVLKL [ATM],PRISMA enrichment of interactor (log2),"AURKA, O14965",6.93
same,PRISMA enrichment of interactor (log2),"CDC20, Q12834",4.07
same,PRISMA enrichment of interactor (log2),"GRWD1, Q9BQ67",5.39
same,PRISMA enrichment of interactor (log2),"LSM12, Q3MHD2",5.34
same,PRISMA enrichment of interactor (log2),"LYRM2, Q9NU23",4.62
same,PRISMA enrichment of interactor (log2),"MRPL49, Q13405",5.4
same,PRISMA enrichment of interactor (log2),"MRPL55, Q7Z7F7",7.07

# Reprinted at random: 3 entries already listed.
binder,measurement,setting,value
MSKNSVTVLPWSLQ [P2RY14],PRISMA enrichment of interactor (log2),"MCU, Q8NE86",6.97
MRTVMCVLKL [ATM],PRISMA enrichment of interactor (log2),"CDC20, Q12834",4.07
same,PRISMA enrichment of interactor (log2),"AURKA, O14965",6.93
